Paper PMC5035021
The exact form of at least one protein or probe is not confirmed. For part of these data: Negatives hold for the conditions tested. For part of these data: Results from cells or extracts need not show a direct contact. For part of these data: Protein sequences can lack the tags named with them.

Columns and labels:
[1] = biological target: GST-IRF-3(5D) (human (HeLa cDNA)) (UniProt Q14653); test: EMSA; settings: 8 pmol DIG-labeled probe with 5 ug nuclear lysate protein or GST-fusion protein (50-500 nM), Roche DIG gel shift kit, 6% DNA retardation gel, recombinant protein, residues 1-427, protein details: N-terminal GST (pGEX5x-1), label: DIG
[2] = biological target: T1, IRF-3 (nuclear extract, poly I:C-transfected HeLa) (human (HeLa)) (UniProt Q14653); test: EMSA supershift (complex lost with anti-IRF-3); settings: poly I:C-treated extract, control IgG no effect; 8 pmol DIG-labeled probe with 5 ug nuclear lysate protein or GST-fusion protein (50-500 nM), Roche DIG gel shift kit, 6% DNA retardation gel; protein in an extract; label: DIG
T1 sequence (looked up, limits assumed): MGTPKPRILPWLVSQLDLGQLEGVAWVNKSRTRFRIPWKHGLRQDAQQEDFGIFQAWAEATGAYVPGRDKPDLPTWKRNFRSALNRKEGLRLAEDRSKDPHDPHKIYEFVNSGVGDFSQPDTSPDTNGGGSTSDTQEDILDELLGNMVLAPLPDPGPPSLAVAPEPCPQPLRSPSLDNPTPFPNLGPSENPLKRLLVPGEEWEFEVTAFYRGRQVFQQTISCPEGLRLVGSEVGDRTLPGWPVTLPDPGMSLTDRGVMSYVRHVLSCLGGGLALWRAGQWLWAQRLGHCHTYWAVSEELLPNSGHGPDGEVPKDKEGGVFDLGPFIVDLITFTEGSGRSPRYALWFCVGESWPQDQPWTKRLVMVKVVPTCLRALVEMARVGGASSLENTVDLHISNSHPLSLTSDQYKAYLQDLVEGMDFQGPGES

[3] = biological target: T1, IRF-3 (nuclear extract, poly I:C-transfected HeLa) (human (HeLa)); test: EMSA; settings: poly I:C-treated extract; 8 pmol DIG-labeled probe with 5 ug nuclear lysate protein or GST-fusion protein (50-500 nM), Roche DIG gel shift kit, 6% DNA retardation gel; protein in an extract; label: DIG
[4] = biological target: T1, IRF-3 (nuclear extract, poly I:C-transfected HeLa) (human (HeLa)); test: competition with a labelled probe; settings: 50-fold molar excess unlabeled against labeled WT; 8 pmol DIG-labeled probe with 5 ug nuclear lysate protein or GST-fusion protein (50-500 nM), Roche DIG gel shift kit, 6% DNA retardation gel; protein in an extract

GTTGCACTTTCGATTTTCCCTTTAGTTATTAAAG / GGAACTTTAATAACTAAAGGGAAAATCGAAAGTG [RIG-I IRF-E WT]
binding result ([1]; 50, 125, 500 nM protein, concentration-dependent): binds | binding result [2]: binds

GTTGCACTTTCGATGGGACCTTTAGTTATTAAAG / GGAACTTTAATAACTAAAGGTCCCATCGAAAGTG [RIG-I IRF-E MT]
binding result ([1]; 500 nM protein): no binding | binding result [3]: no binding

GTTGCACTTTCGATTTTCCCTTTAGTTATTAAAG / GGAACTTTAATAACTAAAGGGAAAATCGAAAGTG [RIG-I IRF-E WT, unlabeled competitor]
binding result [4]: binds

GTTGCACTTTCGATGGGACCTTTAGTTATTAAAG / GGAACTTTAATAACTAAAGGTCCCATCGAAAGTG [RIG-I IRF-E MT, unlabeled competitor]
binding result [4]: no binding
